Experimental data: PubChem BioAssay AID1224830 (NIAID, 2016)
Test: 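Genes whose knock-down alters the TNF-alpha reporter response to LPS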 (primary screen). Cells: human THP-1 monocytic leukaemia cells, TNF dual-luciferase reporter clone, PMA-differentiated to macrophage-like cells. Knock-down reagent: siRNA pool against human genes, 50 nM. Time to read-out: LPS for 4 h, given about 3 days after siRNA transfection. Conditions: bacterial LPS (TLR4 ligand), 10 ng/ml. Measured: 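Ratio of firefly to renilla light, scaled to the plate median and expressed as a robust z-score per replicate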. Scale: TNF reporter robust z-score: higher = stronger TNF reporter response to LPS. Call rule: 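a well is active when its z-score exceeds 2.8 or falls below -1.5; control wells carry no call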.
The whole screen tested about 18,000 reagents; this is a part drawn at random. In the full data, about 2,900 (16%) got an active call. 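Calls are made per well; low scores hint the gene aids the LPS response, high scores that it dampens it.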 Repeated entries: four replicate wells of each siRNA pool.

target gene | TNF reporter robust z-score | Call
SPIRE2 | 0.33 | inactive
SPIRE2 | 1.35 | inactive
SPIRE2 | 0.11 | inactive
SPIRE2 | -0.35 | inactive
HIP1R | 0.14 | inactive
HIP1R | 0.74 | inactive
HIP1R | 0.23 | inactive
HIP1R | 1.15 | inactive
DNAH12 | -0.32 | inactive
DNAH12 | 0.2 | inactive
DNAH12 | 0.39 | inactive
DNAH12 | 0.26 | inactive
ANKRD29 | 0.31 | inactive
ANKRD29 | 1.9 | inactive
ANKRD29 | 1.11 | inactive
ANKRD29 | 3.42 | active
UCMA | -0.73 | inactive
UCMA | -0.51 | inactive
UCMA | -0.58 | inactive
UCMA | -0.07 | inactive
RPS10 | 0.23 | inactive
RPS10 | -0.11 | inactive
RPS10 | -0.72 | inactive
RPS10 | -0.29 | inactive
LMF1 | -0.61 | inactive
LMF1 | -0.48 | inactive
LMF1 | -0.89 | inactive
LMF1 | -0.13 | inactive
IQSEC2 | 2.12 | inactive
IQSEC2 | 1.91 | inactive
IQSEC2 | 1.02 | inactive
IQSEC2 | 1.33 | inactive
EIF2AK2 | -0.57 | inactive
EIF2AK2 | -1.49 | inactive
EIF2AK2 | -0.72 | inactive
EIF2AK2 | -1.01 | inactive
AKR1C1 | 0.54 | inactive
AKR1C1 | -0.61 | inactive
AKR1C1 | -0.45 | inactive
AKR1C1 | -0.02 | inactive
NPAS3 | 0.94 | inactive
NPAS3 | 0.75 | inactive
NPAS3 | -0.33 | inactive
NPAS3 | -0.46 | inactive
NUDT14 | 1.4 | inactive
NUDT14 | 1.59 | inactive
NUDT14 | -0.32 | inactive
NUDT14 | 0.17 | inactive
DDX10 | -0.77 | inactive
DDX10 | -0.81 | inactive
DDX10 | -0.71 | inactive
DDX10 | -1.24 | inactive
OR1L1 | 2.46 | inactive
OR1L1 | 1.71 | inactive
OR1L1 | 2.61 | inactive
OR1L1 | 2.96 | active
CLUL1 | 5.48 | active
CLUL1 | 0.01 | inactive
CLUL1 | 0.94 | inactive
CLUL1 | 1.5 | inactive
EIF4G1 | -1.77 | active
EIF4G1 | -1.83 | active
EIF4G1 | -1.5 | inactive
EIF4G1 | -1.69 | active
HIPK2 | 0.31 | inactive
HIPK2 | 1.07 | inactive
HIPK2 | 2.4 | inactive
HIPK2 | 1.79 | inactive
TNFSF4 | 2.1 | inactive
TNFSF4 | 1.33 | inactive
TNFSF4 | 4.51 | active
TNFSF4 | 3.63 | active
GRIK4 | -0.12 | inactive
GRIK4 | 0.48 | inactive
GRIK4 | 0.99 | inactive
GRIK4 | 1.14 | inactive
MEGF9 | 0.49 | inactive
MEGF9 | 1.12 | inactive
MEGF9 | -0.41 | inactive
MEGF9 | 0.6 | inactive
NAP1L1 | -0.19 | inactive
NAP1L1 | 0.44 | inactive
NAP1L1 | 0.15 | inactive
RBM4B | 0.89 | inactive
RBM4B | -0.41 | inactive
RBM4B | -0.64 | inactive
RBM4B | -0.19 | inactive
TLCD1 | 0.91 | inactive
TLCD1 | -0.37 | inactive
TLCD1 | 0.4 | inactive
TLCD1 | 0.47 | inactive
SNRPD2 | -1.19 | inactive
SNRPD2 | -0.32 | inactive
SNRPD2 | -0.38 | inactive
SNRPD2 | -0.83 | inactive
AGAP6 | -0.75 | inactive
AGAP6 | -0.58 | inactive
AGAP6 | -0.39 | inactive
AGAP6 | -0.41 | inactive
ALDOA | -1.34 | inactive
ALDOA | -1.62 | active
ALDOA | -1.86 | active
ALDOA | -1.79 | active
CALB1 | 0.17 | inactive
CALB1 | 0.93 | inactive
CALB1 | -0.53 | inactive
CALB1 | -0.26 | inactive
CEP76 | -0.33 | inactive
CEP76 | -0.54 | inactive
CEP76 | -0.24 | inactive
